Laboratory results: PubChem BioAssay AID720505 (Drosophila RNAi Screening Center, 2013)

- Test: 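Fly regulators or components of the CRAC channel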 (primary screen)
- System: Drosophila S2R+ cells
- Reagents: long dsRNA against Drosophila genes
- Conditions: thapsigargin (2 µM) in calcium-free buffer to empty internal stores, then 2 mM calcium added back
- Detection: 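Stores emptied by 2 µM thapsigargin without calcium, then 2 mM calcium re-added; fluo-4 fluorescence followed by FLIPR in 384-well plates, per-well averaged endpoint, raw; two screen passes, some wells retested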
- Scale: calcium signal and retest calcium signal: higher = more calcium entry after store depletion
- Active means: 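Knock-downs counted as hits when calcium entry dropped relative to STIM1 positive and Rho1 negative controls present on each plate; roughly 1500 genes called, with reductions of differing size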
- Calls: active = called as lowering calcium entry; inactive = not called
In all, the deposit lists about 20,000 reagents; shown is an unselected part of those that have a named target and a result. Of all reagents, about 2,100 (10%) were called active. 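Raw plate signals without normalisation; calls rest on control-based scores that were not deposited; replicate 2 separates called from uncalled poorly.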 Entries without a mark were called inactive. The numbers tell different reagents against one gene apart. Names joined by + are all predicted targets of the reagent. Not stated in the record: the amount of reagent, the time to read-out.

| Gene | dsRNA no. | calcium signal, replicate 1 | calcium signal, replicate 2 | retest calcium signal, replicate 1 | retest calcium signal, replicate 2 |
| --- | --- | --- | --- | --- | --- |
| CG15456 | 1 | 185 | 99.2 | – | – |
| sowah | 1 | 147 | 112 | – | – |
| Oscillin | 1 | 138 | 165 | 92 | 105 |
| Ns2 | 1 | 96.4 | 85.7 | – | – |
| CG12289 | 1 | 124 | 96.2 | – | – |
| CG8939 | 1 | 104 | 108 | – | – |
| CG14929 | 1 | 171 | 183 | – | – |
| ubl | 1 | 109 | 87.9 | – | – |
| TwdlM | 1 | 98.9 | 83.5 | – | – |
| side-IV + asRNA:CR17025 | 1 | 161 | 184 | – | – |
| side-IV + asRNA:CR17025 | 2 | 122 | 147 | – | – |
| Kap-alpha3 | 1 | 194 | 124 | – | – |
| Cpr100A | 1 | 179 | 182 | – | – |
| Vha55 | 1 | 91.8 | 133 | – | – |
| fan | 1 | 111 | 90.3 | – | – |
| PIG-N | 1 | 111 | 75.5 | – | – |
| PGRP-SD | 1 | 114 | 81 | – | – |
| Mcm3 | 1 | 153 | 70.5 | – | – |
| oaf | 1 | 194 | 137 | – | – |
| Gr23a | 1 | 180 | 165 | – | – |
| CG13743 | 1 | 120 | 87.6 | 5971 | 113 |
| CG13743 | 2 | 162 | 113 | – | – |
| CG13743 | 3 | 111 | 186 | – | – |
| PAN2 | 1 | 108 | 146 | – | – |
| CG10300 | 1 | 132 | 137 | – | – |
| Ravus | 1 | 82.9 | 161 | – | – |
| CG2993 | 1 | 144 | 165 | – | – |
| CG2993 | 2 | 81.9 | 86.7 | – | – |
| CG4957 | 1 | 196 | 149 | – | – |
| ND-ASHI | 1 | 187 | 121 | – | – |
| CG11200 | 1 | 148 | 80.4 | – | – |
| CG18249 | 1 | 119 | 94.5 | – | – |
| CG6938 | 1 | 44.1 (active) | 86.8 | – | – |
| inc | 1 | 109 | 113 | – | – |
| inc | 2 | 99.4 | 90.3 | 103 | 95.3 |
| Hs3st-B | 1 | 57.8 (active) | 173 | – | – |
| CG11382 | 1 | 98 (active) | 116 | – | – |
| Adgf-A | 1 | 130 | 76.5 | – | – |
| Dp1 | 1 | 105 | 92.5 | – | – |
| CG7715 | 1 | 150 | 165 | – | – |
| Gr64d + Gr64e | 1 | 95 | 81.5 | 86.3 | 84.9 |
| mei-41 | 1 | 97.6 | 115 | – | – |
| Oatp58Da | 1 | 201 | 80.9 | – | – |
| Cpr97Eb | 1 | 153 | 143 | – | – |
| pie | 1 | 95.1 | 101 | – | – |
| CG30195 | 1 | 83.5 | 141 | – | – |
| SmD3 | 1 | 97.6 | 89.1 | – | – |
| Shawn + Tyler | 1 | 102 | 89.3 | – | – |
| Shawn + Tyler | 2 | 73.5 (active) | 166 | – | – |
| ng4 | 1 | 82.5 (active) | 130 | – | – |

5 entries from above, arranged by “calcium signal, replicate 1”, descending:
| Gene | dsRNA no. | calcium signal, replicate 1 | calcium signal, replicate 2 | retest calcium signal, replicate 1 | retest calcium signal, replicate 2 |
| --- | --- | --- | --- | --- | --- |
| Shawn + Tyler | 1 | 102 | 89.3 | – | – |
| SmD3 | 1 | 97.6 | 89.1 | – | – |
| pie | 1 | 95.1 | 101 | – | – |
| CG30195 | 1 | 83.5 | 141 | – | – |
| Shawn + Tyler | 2 | 73.5 (active) | 166 | – | – |

The list goes on:
| Gene | dsRNA no. | calcium signal, replicate 1 | calcium signal, replicate 2 | retest calcium signal, replicate 1 | retest calcium signal, replicate 2 |
| --- | --- | --- | --- | --- | --- |
| CG7407 | 1 | 119 | 116 | – | – |
| CG10904 | 1 | 184 | 259 | – | – |
| Pi3K68D | 1 | 134 | 74.3 | – | – |
| Root | 1 | 153 | 149 | – | – |
| SkpB | 1 | 92 | 115 | – | – |
| Usp30 | 1 | 220 | 103 | – | – |
| CG43755 | 1 | 98.7 | 159 | – | – |
| CG12057 | 1 | 76.6 (active) | 121 | – | – |
| ttv | 1 | 158 | 139 | – | – |
| enc | 1 | 107 | 88.9 | – | – |
| CG1701 | 1 | 136 | 177 | – | – |
| csw | 1 | 97.2 | 113 | – | – |
| csw | 2 | 149 | 164 | – | – |
| snRNP-U1-C | 1 | 161 | 115 | – | – |
| Flacc | 1 | 206 | 142 | – | – |
| htl | 1 | 163 | 296 | – | – |
| DIP-alpha | 1 | 117 | 157 | – | – |
| DIP-alpha | 2 | 97 | 126 | – | – |
| DIP-alpha | 3 | 127 | 108 | – | – |
| atos | 1 | 89.2 | 212 | – | – |
| CG5390 | 1 | 198 | 156 | – | – |
| CG32066 | 1 | 77.1 | 95.6 | – | – |
| CG32066 | 2 | 82.4 | 70 | – | – |
| Cp18 | 1 | 105 | 67.3 | – | – |
| gammaTub23C | 1 | 110 | 211 | – | – |
| pkaap | 1 | 79.8 | 106 | – | – |
| CG31343 | 1 | 131 | 177 | – | – |
| CG7137 | 1 | 103 | 83.6 | – | – |
| CG2681 | 1 | 131 | 161 | – | – |
| TBC1D5 | 1 | 111 | 141 | – | – |
| alpha-Est2 | 1 | 134 | 95.4 | – | – |
| CG4017 | 1 | 179 | 129 | – | – |
| Oseg6 | 1 | 153 | 146 | – | – |
